From PubChem BioAssay AID248 (DTP/NCI, 2004)
The list is a part of this screen's results and no random one: it gathers some chemical classes. Other doses and runs of a compound may be missing. T/C: endpoint of the treated group in % of that of the vehicle group. Where survival is the endpoint, the PubChem record calls one and a half times the control and up active, and a quarter to a half above the control has no call in these data; cut-offs in other NCI protocols can differ. Schedules are NCI's codes, taken here to give the interval after Q, in days (D) or hours (H), and the number of doses after X. Some T/C values are followed by the survivors on the day toxicity was checked, most often the fifth; where neither a count nor a note follows, no animal had died by that day. Some entries hold several experiments; their values stand side by side, smallest first. Some schedules carry Z or #; the key to these is not given.

System: L1210 leukemia ip in BDF1 mice, survival T/C
Assay: NCI In Vivo Anticancer Drug Screen. Data for tumor model L1210 Leukemia (intraperitoneal) in B6D2F1 (BDF1) mice
Details: T/C endpoint: mean survival time, higher T/C = longer survival

NC(=O)c1[nH]cnc1/N=N\N(CCCl)CCCl was tested, and the T/C (dose: 2.0 mg/kg/injection, schedule: Q#A X Z (ip), vehicle: carboxymethylcellulose (CMC)) was 97 % of control [5 of 6 alive], the T/C (dose: 3.0 mg/kg/injection, schedule: Q#A X Z (ip), vehicle: carboxymethylcellulose (CMC)) was 104 % of control and the T/C (dose: 3.2 mg/kg/injection, schedule: Q03HX040 (ip), vehicle: carboxymethylcellulose (CMC)) was 117 % of control [7 of 8 alive]. The T/C (dose: 4.0 mg/kg/injection, schedule: Q01DX Z (ip), vehicle: carboxymethylcellulose (CMC)) was 113 % of control, the T/C (dose: 4.0 mg/kg/injection, schedule: Q03DX Z (ip), vehicle: carboxymethylcellulose (CMC)) was 103 % of control and the T/C (dose: 4.5 mg/kg/injection, schedule: Q#A X Z (ip), vehicle: carboxymethylcellulose (CMC)) was 122 % of control. For the same molecule, the T/C (dose: 4.69 mg/kg/injection, schedule: Q06HX068 (oral), vehicle: steroid suspending solution) was 113 % of control, the T/C (dose: 6.0 mg/kg/injection, schedule: Q01DX006 (iv), vehicle: carboxymethylcellulose (CMC)) was 112 % of control and the T/C (dose: 6.0 mg/kg/injection, schedule: Q01DX Z (im), vehicle: carboxymethylcellulose (CMC)) was 104 % of control. The T/C (dose: 6.0 mg/kg/injection, schedule: Q01DX Z (ip), vehicle: carboxymethylcellulose (CMC)) was 119 % of control, the T/C (dose: 6.0 mg/kg/injection, schedule: Q01DX Z (oral), vehicle: carboxymethylcellulose (CMC)) was 112 % of control and the T/C (dose: 6.0 mg/kg/injection, schedule: Q03DX Z (ip), vehicle: carboxymethylcellulose (CMC)) was 110 % of control. For the same molecule, the T/C (dose: 6.25 mg/kg/injection, schedule: Q01DX017 (ip), vehicle: carboxymethylcellulose (CMC)) was 98 % of control, the T/C (dose: 6.25 mg/kg/injection, schedule: Q#A X034 (ip), vehicle: carboxymethylcellulose (CMC)) was 102 % of control and the T/C (dose: 6.3 mg/kg/injection, schedule: Q03HX008 (ip), vehicle: carboxymethylcellulose (CMC)) was 108 % of control. The T/C (dose: 6.3 mg/kg/injection, schedule: Q03HX040 (ip), vehicle: carboxymethylcellulose (CMC)) was 125 % of control, the T/C (dose: 6.3 mg/kg/injection, schedule: Q08DX024 (ip), vehicle: carboxymethylcellulose (CMC)) was 117 % of control and the T/C (dose: 6.5 mg/kg/injection, schedule: Q#A X Z (ip), vehicle: carboxymethylcellulose (CMC)) was 122 and 151 % of control. The T/C (dose: 9.0 mg/kg/injection, schedule: Q01DX006 (iv), vehicle: carboxymethylcellulose (CMC)) was 120 % of control, the T/C (dose: 9.0 mg/kg/injection, schedule: Q01DX Z (im), vehicle: carboxymethylcellulose (CMC)) was 118 % of control and the T/C (dose: 9.0 mg/kg/injection, schedule: Q01DX Z (ip), vehicle: carboxymethylcellulose (CMC)) was 116 % of control. The T/C (dose: 9.0 mg/kg/injection, schedule: Q01DX Z (oral), vehicle: carboxymethylcellulose (CMC)) was 122 % of control, the T/C (dose: 9.0 mg/kg/injection, schedule: Q03DX Z (ip), vehicle: carboxymethylcellulose (CMC)) was 107 % of control and the T/C (dose: 9.37 mg/kg/injection, schedule: Q06HX068 (oral), vehicle: steroid suspending solution) was 114 % of control. The T/C (dose: 10.0 mg/kg/injection, schedule: Q#A X Z (ip), vehicle: carboxymethylcellulose (CMC)) was 236 % of control, the T/C (dose: 12.5 mg/kg/injection, schedule: Q01DX017 (ip), vehicle: carboxymethylcellulose (CMC)) was 95 and 112 % of control and the T/C (dose: 12.5 mg/kg/injection, schedule: Q02DX009 (ip), vehicle: carboxymethylcellulose (CMC)) was 112 % of control. The T/C (dose: 12.5 mg/kg/injection, schedule: Q03HX008 (ip), vehicle: carboxymethylcellulose (CMC)) was 121 % of control, the T/C (dose: 12.5 mg/kg/injection, schedule: Q03HX008 (ip), vehicle: water) was 149 % of control and the T/C (dose: 12.5 mg/kg/injection, schedule: Q03HX040 (ip), vehicle: carboxymethylcellulose (CMC)) was 208 % of control. For the same molecule, the T/C (dose: 12.5 mg/kg/injection, schedule: Q08DX024 (ip), vehicle: carboxymethylcellulose (CMC)) was 141 % of control, the T/C (dose: 12.5 mg/kg/injection, schedule: Q#A X034 (ip), vehicle: carboxymethylcellulose (CMC)) was 107 % of control and the T/C (dose: 13.0 mg/kg/injection, schedule: Q01DX006 (iv), vehicle: carboxymethylcellulose (CMC)) was 130 and 139 % of control. The T/C (dose: 13.0 mg/kg/injection, schedule: Q01DX Z (im), vehicle: carboxymethylcellulose (CMC)) was 131 % of control, the T/C (dose: 13.0 mg/kg/injection, schedule: Q01DX Z (ip), vehicle: carboxymethylcellulose (CMC)) was 139 and 143 % of control and the T/C (dose: 13.0 mg/kg/injection, schedule: Q01DX Z (oral), vehicle: carboxymethylcellulose (CMC)) was 124 % of control. The T/C (dose: 13.0 mg/kg/injection, schedule: Q01DX Z (sc), vehicle: carboxymethylcellulose (CMC)) was 115 % of control, the T/C (dose: 13.0 mg/kg/injection, schedule: Q03DX Z (ip), vehicle: carboxymethylcellulose (CMC)) was 119 % of control and the T/C (dose: 13.5 mg/kg/injection, schedule: Q03HX016 (ip), vehicle: carboxymethylcellulose (CMC)) was 180 % of control. The T/C (dose: 16.5 mg/kg/injection, schedule: Q#A X Z (ip), vehicle: carboxymethylcellulose (CMC)) was 208 % of control, the T/C (dose: 18.7 mg/kg/injection, schedule: Q01DX009 (oral), vehicle: carboxymethylcellulose (CMC)) was 121 % of control and the T/C (dose: 18.75 mg/kg/injection, schedule: Q06HX020 (oral), vehicle: steroid suspending solution) was 110 % of control. The T/C (dose: 18.75 mg/kg/injection, schedule: Q06HX068 (oral), vehicle: steroid suspending solution) was 155 % of control, the T/C (dose: 20.0 mg/kg/injection, schedule: Q01DX001 (ip), vehicle: carboxymethylcellulose (CMC)) was 119 % of control and the T/C (dose: 20.0 mg/kg/injection, schedule: Q01DX006 (iv), vehicle: carboxymethylcellulose (CMC)) was 159 and 178 % of control [5 of 6 alive]. The T/C (dose: 20.0 mg/kg/injection, schedule: Q01DX Z (im), vehicle: carboxymethylcellulose (CMC)) was 141 % of control, the T/C (dose: 20.0 mg/kg/injection, schedule: Q01DX Z (ip), vehicle: carboxymethylcellulose (CMC)) was 331 % of control and the T/C (dose: 20.0 mg/kg/injection, schedule: Q01DX Z (oral), vehicle: carboxymethylcellulose (CMC)) was 139 % of control. The T/C (dose: 20.0 mg/kg/injection, schedule: Q01DX Z (sc), vehicle: carboxymethylcellulose (CMC)) was 132 % of control, the T/C (dose: 20.0 mg/kg/injection, schedule: Q03DX Z (ip), vehicle: carboxymethylcellulose (CMC)) was 134 % of control and the T/C (dose: 21.75 mg/kg/injection, schedule: Q01DX009 (ip), vehicle: other) was 151, 152, 166 % of control. For the same molecule, the T/C (dose: 22.5 mg/kg/injection, schedule: Q03HX016 (ip), vehicle: carboxymethylcellulose (CMC)) was 207 % of control, the T/C (dose: 23.0 mg/kg/injection, schedule: Q01DX017 (ip), vehicle: carboxymethylcellulose (CMC)) was 100 % of control and the T/C (dose: 23.0 mg/kg/injection, schedule: Q01DX Z (ip), vehicle: carboxymethylcellulose (CMC)) was 110 % of control. The T/C (dose: 25.0 mg/kg/injection, schedule: Q01DX009 (ip), vehicle: carboxymethylcellulose (CMC)) was 163 % of control, the T/C (dose: 25.0 mg/kg/injection, schedule: Q01DX009 (ip), vehicle: water) was 212 % of control and the T/C (dose: 25.0 mg/kg/injection, schedule: Q01DX017 (ip), vehicle: carboxymethylcellulose (CMC)) was 117, 144, 210 % of control. The T/C (dose: 25.0 mg/kg/injection, schedule: Q01DX Z (ip), vehicle: carboxymethylcellulose (CMC)) was 173 % of control, the T/C (dose: 25.0 mg/kg/injection, schedule: Q02DX009 (ip), vehicle: carboxymethylcellulose (CMC)) was 117, 130, 144 % of control and the T/C (dose: 25.0 mg/kg/injection, schedule: Q03HX008 (ip), vehicle: carboxymethylcellulose (CMC)) was 146 % of control. For the same molecule, the T/C (dose: 25.0 mg/kg/injection, schedule: Q03HX008 (ip), vehicle: water) was 534 % of control and the T/C (dose: 25.0 mg/kg/injection, schedule: Q03HX040 (ip), vehicle: carboxymethylcellulose (CMC)) was 235 % of control.
